Assay results reported in publication PMC12752627, “Discovery of a Potent and Selective TEAD Degrader with Durable Degradation Activity” (Advanced Science, 2025).
Further values from the same series stand in other lists.

System: 867 cancer cell lines
Assay: PRISM assay (barcoded cell line screening, 5 days);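 note: top test concentration 10 mM in eight-point dilution series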
Type: cell-based
Design: scale not given here
Procedure: The principle of the PRISM assay has been described elsewhere and was conducted as previously outlined by the PRISM team at the Broad Institute.^[ [14], [31] ^] In PRISM (MTS027) experiments, KG‐FP‐003 was tested across 867 different cancer cell lines. Cells were treated with eight concentration gradients, ranging from 4.6 nM to […], in triplicate dilutions over a period of five days. Each plate was treated with 20 µM bortezomib as a positive control and DMSO as a negative control. Three replicate experiments were performed for each compound. The resulting data were analyzed using GraphPad PRISM 9.5.

CNC(=O)c1cc2c(c(F)c1-c1c(Cl)c(F)cc3c1C[C@@](CN[C@H]1CC[C@H](C(=O)N4CCC(CC5CCN(C(=O)COc6ccc(N7CCC(=O)NC7=O)c(C)c6)CC5)CC4)CC1)(c1ccccc1)O3)[C@@H](O)[C@@H](C)C2 [KG-FP-003]
KG-FP-003-AUC (PANC1_PANCREAS, PR500): 0.97
KG-FP-003-AUC (PANC0203_PANCREAS, PR500): 0.80
KG-FP-003-AUC (PANC0327_PANCREAS, PR500): 0.68
KG-FP-003-AUC (PANC0403_PANCREAS, PR500): 0.85
KG-FP-003-AUC (PANC0504_PANCREAS, PR300): 0.41
KG-FP-003-AUC (PANC0813_PANCREAS, PR500): 0.96
KG-FP-003-AUC (PANC1005_PANCREAS, PR500): 0.72
KG-FP-003-AUC (PATU8902_PANCREAS, PR500): 0.69
KG-FP-003-AUC (PATU8988S_PANCREAS, PR500): 0.92
KG-FP-003-AUC (PATU8988T_PANCREAS, PR500): 0.33
KG-FP-003-AUC (PC3_PROSTATE, PR500): 1.00
KG-FP-003-AUC (PC14_LUNG, PR500): 0.89
KG-FP-003-AUC (PEA1_OVARY, PR300): 0.57
KG-FP-003-AUC (PECAPJ15_UPPER_AERODIGESTIVE_TRACT, PR500): 0.69
KG-FP-003-AUC (PECAPJ41CLONED2_UPPER_AERODIGESTIVE_TRACT, PR500): 0.74
KG-FP-003-AUC (PECAPJ49_UPPER_AERODIGESTIVE_TRACT, PR500): 0.73
KG-FP-003-AUC (PEDS005TSUSP_KIDNEY, PR300): 0.76
KG-FP-003-AUC (PF382_HAEMATOPOIETIC_AND_LYMPHOID_TISSUE, PR300): 0.99
KG-FP-003-AUC (PFSK1_CENTRAL_NERVOUS_SYSTEM, PR300): 0.97
KG-FP-003-AUC (PK1_PANCREAS, PR500): 0.88
KG-FP-003-AUC (PK8_PANCREAS, PR300): 0.92
KG-FP-003-AUC (PK45H_PANCREAS, PR500): 0.72
KG-FP-003-AUC (PK59_PANCREAS, PR500): 0.63
KG-FP-003-AUC (PL21_HAEMATOPOIETIC_AND_LYMPHOID_TISSUE, PR300): 1.00
KG-FP-003-AUC (PLCPRF5_LIVER, PR500): 0.87
KG-FP-003-AUC (PMFKO14_LARGE_INTESTINE, PR300): 0.97
KG-FP-003-AUC (PSN1_PANCREAS, PR500): 0.93
KG-FP-003-AUC (QGP1_PANCREAS, PR500): 0.98
KG-FP-003-AUC (RBE_BILIARY_TRACT, PR300): 1.00
KG-FP-003-AUC (RCC10RGB_KIDNEY, PR500): 0.99
KG-FP-003-AUC (RCHACV_HAEMATOPOIETIC_AND_LYMPHOID_TISSUE, PR300): 0.79
KG-FP-003-AUC (RCK8_HAEMATOPOIETIC_AND_LYMPHOID_TISSUE, PR300): 0.96
KG-FP-003-AUC (RCM1_LARGE_INTESTINE, PR500): 1.00
KG-FP-003-AUC (RDES_BONE, PR300): 0.99
KG-FP-003-AUC (RD_SOFT_TISSUE, PR300): 0.86
KG-FP-003-AUC (RD_SOFT_TISSUE, PR500): 0.90
KG-FP-003-AUC (RERFGC1B_STOMACH, PR300): 0.85
KG-FP-003-AUC (RERFLCAD1_LUNG, PR500): 1.00
KG-FP-003-AUC (RERFLCAD2_LUNG, PR500): 0.72
KG-FP-003-AUC (RERFLCAI_LUNG, PR500): 0.59
KG-FP-003-AUC (RERFLCKJ_LUNG, PR500): 0.99
KG-FP-003-AUC (RERFLCMS_LUNG, PR500): 0.99
KG-FP-003-AUC (RH4_SOFT_TISSUE, PR300): 0.83
KG-FP-003-AUC (RH28_SOFT_TISSUE, PR300): 0.97
KG-FP-003-AUC (RH30_SOFT_TISSUE, PR300): 0.99
KG-FP-003-AUC (RH30_SOFT_TISSUE, PR500): 0.68
KG-FP-003-AUC (RH36_SOFT_TISSUE, PR300): 0.67
KG-FP-003-AUC (RHJT_SOFT_TISSUE, PR300): 0.68
KG-FP-003-AUC (RI1_HAEMATOPOIETIC_AND_LYMPHOID_TISSUE, PR300): 0.82
KG-FP-003-AUC (RKN_SOFT_TISSUE, PR500): 0.61
KG-FP-003-AUC (RKO_LARGE_INTESTINE, PR500): 0.99
KG-FP-003-AUC (RL952_ENDOMETRIUM, PR500): 0.92
KG-FP-003-AUC (RL_HAEMATOPOIETIC_AND_LYMPHOID_TISSUE, PR300): 0.99
KG-FP-003-AUC (RMGI_OVARY, PR500): 0.72
KG-FP-003-AUC (RMSYM_SOFT_TISSUE, PR300): 0.99
KG-FP-003-AUC (RMUGS_OVARY, PR500): 1.00
KG-FP-003-AUC (RO82W1_THYROID, PR300): 0.66
KG-FP-003-AUC (RPMI7951_SKIN, PR300): 0.72
KG-FP-003-AUC (RPMI8402_HAEMATOPOIETIC_AND_LYMPHOID_TISSUE, PR300): 0.82
KG-FP-003-AUC (RT4_URINARY_TRACT, PR500): 0.93
KG-FP-003-AUC (RT112_URINARY_TRACT, PR500): 0.87
KG-FP-003-AUC (RVH421_SKIN, PR500): 0.83
KG-FP-003-AUC (S117_THYROID, PR500): 0.82
KG-FP-003-AUC (SAOS2_BONE, PR300): 0.83
KG-FP-003-AUC (SBC5_LUNG, PR500): 0.99
KG-FP-003-AUC (SCABER_URINARY_TRACT, PR500): 0.66
KG-FP-003-AUC (SCC3_HAEMATOPOIETIC_AND_LYMPHOID_TISSUE, PR300): 0.75
KG-FP-003-AUC (SCC9_UPPER_AERODIGESTIVE_TRACT, PR300): 0.83
KG-FP-003-AUC (SCC25_UPPER_AERODIGESTIVE_TRACT, PR500): 0.77
KG-FP-003-AUC (SCLC21H_LUNG, PR300): 0.88
KG-FP-003-AUC (SEM_HAEMATOPOIETIC_AND_LYMPHOID_TISSUE, PR300): 0.99
KG-FP-003-AUC (SF126_CENTRAL_NERVOUS_SYSTEM, PR500): 0.95
KG-FP-003-AUC (SF295_CENTRAL_NERVOUS_SYSTEM, PR500): 1.00
KG-FP-003-AUC (SF539_CENTRAL_NERVOUS_SYSTEM, PR500): 0.99
KG-FP-003-AUC (SG231_BILIARY_TRACT, PR300): 1.00
KG-FP-003-AUC (SH4_SKIN, PR500): 0.76
KG-FP-003-AUC (SH10TC_STOMACH, PR500): 0.67
KG-FP-003-AUC (SHMAC5_PROSTATE, PR300): 0.80
KG-FP-003-AUC (SHP77_LUNG, PR300): 0.99
KG-FP-003-AUC (SIMA_AUTONOMIC_GANGLIA, PR300): 0.99
KG-FP-003-AUC (SIMA_AUTONOMIC_GANGLIA, PR500): 1.00
KG-FP-003-AUC (SISO_CERVIX, PR300): 0.69
KG-FP-003-AUC (SJSA1_BONE, PR300): 0.68
KG-FP-003-AUC (SJSA1_BONE, PR500): 0.82
KG-FP-003-AUC (SKES1_BONE, PR300): 0.97
KG-FP-003-AUC (SKES1_BONE, PR500): 0.99
KG-FP-003-AUC (SKGII_ENDOMETRIUM, PR300): 0.88
KG-FP-003-AUC (SKGI_ENDOMETRIUM, PR300): 0.86
KG-FP-003-AUC (SKGT2_STOMACH, PR300): 0.99
KG-FP-003-AUC (SKGT4_OESOPHAGUS, PR300): 0.74
KG-FP-003-AUC (SKHEP1_LIVER, PR500): 0.37
KG-FP-003-AUC (SKLMS1_SOFT_TISSUE, PR300): 0.92
KG-FP-003-AUC (SKLU1_LUNG, PR500): 0.72
KG-FP-003-AUC (SKM1_HAEMATOPOIETIC_AND_LYMPHOID_TISSUE, PR300): 1.00
KG-FP-003-AUC (SKMEL2_SKIN, PR500): 0.99
KG-FP-003-AUC (SKMEL3_SKIN, PR500): 1.00
